Test results as given in US20250122280A1, “ANTI-Ly6E ANTIBODIES, IMMUNOCONJUGATES, AND USES THEREOF” (Genentech, Inc., priority 2022, published 2025).
Results are given in words; binding and its absence hold for the method and conditions named. Some results given as binding are weak or reduced against the parent protein; the word gives no strength.

Key:
[1] = biological target: T1, Ly6E on cell lines known to express Ly6E (Kuramochi, NCI-H1781, HCC1569x2) (human) (UniProt Q16553); experiment: flow cytometry on two Ly6E-expressing cell lines
T1 sequence: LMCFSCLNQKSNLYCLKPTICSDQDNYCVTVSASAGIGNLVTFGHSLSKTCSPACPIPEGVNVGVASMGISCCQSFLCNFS

[2] = biological target: T1, Ly6E on cell lines known to express Ly6E (Kuramochi, NCI-H1781, HCC1569x2) (human); experiment: flow cytometry on HCC1569x2 cells
[3] = biological target: T1, Ly6E on cell lines known to express Ly6E (Kuramochi, NCI-H1781, HCC1569x2) (human); experiment: flow cytometry on cell lines known to express Ly6E
[4] = biological target: T1, Ly6E on cell lines known to express Ly6E (Kuramochi, NCI-H1781, HCC1569x2) (human); experiment: flow cytometry on NCI-H1781 cells

Measured: binding

B1: humanized anti-Ly6E (comprising SEQ ID NOs. 3 and 5) (antibody, human IgG1, kappa, V domains shown)
VH: EVQLVESGGGLVQPGGSLKLSCAASGFTFSTVAMHWVRQASGKGLEWVGRIRTKPVNYETYYADSVKGRFTISRDDSKSTVYLQMNSLKTEDTAVYYCSAPNYYDGTYSFAYWGQGTLVTVSS
VL: DIQMTQSPSSLSASVGDRVTITCKASQNVGSNVDWYQQKPGKAPKLLIYKASNRYTGVPSRFSGSGSGTDFTFTISSLQPEDIATYYCMQSETKYTFGQGTKVEIKR
notes: also called the humanized version; 3A3.v2.D92E
binds: [1] | [2] | [3] | [4]
